These results are taken from patent US20250320211A1, “COMPOUND, COMPOSITION, AND ELECTROPHOTOGRAPHIC PHOTORECEPTOR” (MITSUBISHI CHEMICAL CORPORATION, priority 2022, published 2025).

The data set is described as follows: Measurement of residual potential of photoreceptor. Particulars: photoreceptor with protective layer using the compound; Table 1.

For `C=C(C)C(=O)OCC(COC(=O)C(=C)C)OC(=O)CCC(=O)OCC(CC(C)C)N1C(=O)c2ccc3c4ccc5c6c(ccc(c7ccc(c2c37)C1=O)c64)C(=O)N(C(COC(=O)CCC(=O)OC(COC(=O)C(=C)C)COC(=O)C(=C)C)CC(C)C)C5=O` (centres unmarked) [Comparative Compound 4], the “residual potential property (in words)” value was “poor residual potential property”.
Consider `C=C(C)C(=O)OCC(COC(=O)C(=C)C)OC(=O)CCC(=O)OCC(COC(=O)CCC(=O)OC(COC(=O)C(=C)C)COC(=O)C(=C)C)N1C(=O)c2ccc3c4ccc5c6c(ccc(c7ccc(c2c37)C1=O)c64)C(=O)N(C(COC(=O)CCC(=O)OC(COC(=O)C(=C)C)COC(=O)C(=C)C)COC(=O)CCC(=O)OC(COC(=O)C(=C)C)COC(=O)C(=C)C)C5=O` [Comparative Compound 5], for which the “residual potential property (in words)” value is listed as “poor residual potential property”.
